The values below come from PubChem BioAssay AID493014 (National Center for Advancing Translational Sciences (NCATS), 2011).

What is called AC50 is the concentration at which the activity in the assay is half-maximal.

The nature of this test: qHTS Assay to Find Inhibitors of Chronic Active B-Cell Receptor Signaling. As to conditions: ABC-DLBCL IkBa-CBG/CBR reporter, luminescence ratio (green luciferase fused to IkBa over red control in TMD8 lymphoma cells), 4 h. In short, it runs like this: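 Concentration-response series (up to 46 uM) were applied to TMD8 dual-reporter cells for 4 h at 37C with doxycycline. Green/red ratio, after filter-overlap correction, defined %Activity; red signal alone was normalised to basal cells and zero luminescence.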
A general note: qHTS replaces the single test concentration by a dilution series.

[1] abbreviates: measured here: CBR red luminescence, cell number.
Setting [2] is: measured here: IkBa-CBG green luminescence.

This is one part of the list. The main result of the screen is listed elsewhere. These columns were measured beside it and carry no call. Compounds called inactive in the main read-out are mostly missing here. The note in brackets gives the kind of curve behind each potency; many fits are weak.

For the compound `O=C(COc1ccc2ccccc2c1Br)NC(=S)Nc1cccc(CO)c1`, the AC50 under setting [1] was 10.3 µM [rising, partial curve].
On the same count and under the same terms, the figure for `O=C(NCC(=O)N(Cc1ccco1)C(C(=O)NC1CCCCC1)c1cccnc1)c1cccs1` (configuration not stated) is 29.1 µM [rising, partial curve, poor fit].
Still for that read-out and setting: the figure for `COc1ccccc1CCC(=O)NNC(=O)c1ccccc1` is 12.6 µM [falling, partial curve].
In the case of `COC(=O)c1ccccc1NC(=O)Cn1c(-c2nonc2N)nc2ccccc21`, the AC50 was 3.66 µM [rising, full curve] under setting [1] and 2.91 µM [falling, full curve] under setting [2].
As to `C=C1CCC[C@]2(C)C[C@H]3OC(=O)C(CNCCN(C)C)[C@H]3CC12` (some centres not stated), under setting [1], the AC50 is 3.55 µM [falling, full curve, poor fit].
Same read-out and setting: the figure for `CN(C)CCC1Sc2ccccc2Oc2ccccc21` (configuration not stated) is 29.1 µM [falling, single point]; for `Cc1nc(-c2cc(C#N)c(Sc3ccc(Cl)cc3Cl)nc2C)cs1` it is 14.1 µM [falling, partial curve, poor fit].
The same measure, in the same setting: the figure for `CCc1ccc(N2CC(C(=O)OC)CC2=O)cc1` (configuration not stated) is 10 µM [rising, partial curve]; for `CCCC1Nc2ccc(C(=O)O)cc2C2C=CCC12` (configuration not stated) it is 18.4 µM [falling, partial curve].
With `O=C(NC(=S)Nc1cccc(S(=O)(=O)NC2=NCCC2)c1)c1cc(-c2ccco2)nc2ccccc12`, the AC50 runs as follows: under setting [1], 35.5 µM [rising, single point]; under setting [2], 25.1 µM [falling, single point].
With `CC(C)=NOC(=O)c1ccc(-c2ccccc2)cc1`, under setting [1], the AC50 was 13 µM [rising, partial curve, poor fit].
Still for that read-out and setting: the figure for `Cc1cc(SCC(=O)Nc2ccccc2)n2ncc(-c3ccccc3)c2n1` is 0.316 µM [falling, full curve, poor fit]; for `O=S(=O)(c1cccs1)N1CCN(Cc2ccccc2)CC1` it is 0.398 µM [rising, full curve, poor fit]; for `O=C(NCc1ccccn1)/C(=N/O)c1ccccc1` it is 20 µM [falling, single point].
On the same count and under the same terms, the figure for `O=S(=O)(Nc1ncccn1)c1ccc(NS(=O)(=O)c2cc(Cl)ccc2Cl)cc1` is 11.2 µM [rising, partial curve, poor fit].
For the compound `c1cc2c(cc1C1=NNC(=NC3CC3)SC1)OCCO2`, the AC50 under setting [1] is 11.2 µM [falling, partial curve, poor fit] and the AC50 under setting [2] was 17.8 µM [falling, partial curve, poor fit].
For `COc1ccc(-n2ncc3c(Nc4cccc(C)c4)ncnc32)cc1`, the AC50 under setting [1] was 20.6 µM [rising, single point].
The same measure, in the same setting: the figure for `COc1cccc(C(=O)Nc2ccc(NC(=O)C(C)(C)C)cn2)c1` is 0.291 µM [falling, full curve, poor fit]; for `C=CCn1cccc(C(=O)Nc2cc(OC)cc(OC)c2)c1=O` it is 35.5 µM [falling, single point]; for `COc1ccc(CCN2C(=NC(=O)CC(C)C)SC3CS(=O)(=O)CC32)cc1` (configuration not stated) it is 29.1 µM [rising, single point].
With `Cc1ccccc1NC(=O)CSc1nc2ncc(Cl)cc2[nH]1`, the AC50 under setting [1] is 14.1 µM [falling, partial curve, poor fit].
In the case of `CCOc1ccccc1NC(=O)c1cc2ccccc2oc1=O`, the AC50 under setting [1] was 0.794 µM [falling, full curve].
The same measure, in the same setting: the figure for `O=C(COc1ccccc1O)Nc1ccc(Cl)cc1` is 8.91 µM [falling, partial curve]; for `O=C(c1cc(COc2c(F)cccc2F)on1)N1CCC(c2ccccc2Cl)C1` (configuration not stated) it is 5.62 µM [rising, single point]; for `O=C(NCC(=O)N1CCN(c2ccccc2O)CC1)c1ccccc1` it is 8.91 µM [falling, partial curve].
Still for that read-out and setting: the figure for `CCOc1cccc(/C=N/NS(=O)(=O)c2ccc(C)c([N+](=O)[O-])c2)c1O` is 6.31 µM [falling, full curve].
The same measure, in the same setting: the figure for `O=C(CN1C(=O)NC2(CCOc3ccccc32)C1=O)c1cccs1` (configuration not stated) is 8.2 µM [rising, partial curve, poor fit].
`O=C(Nc1ncccc1Cl)c1cccc(F)c1`: the AC50 under setting [1] was 6.51 µM [rising, single point].
The same measure, in the same setting: the figure for `N=C1/C(=C\c2coc3ccc(O)cc3c2=O)C(=O)N=C2SC=CN12` is 1.41 µM [falling, full curve, poor fit]; for `CCOc1ccc(NC(=O)C(c2ccccn2)N(C(=O)CCl)c2ccc(F)cc2)cc1` (configuration not stated) it is 1.84 µM [falling, full curve].
On the same count and under the same terms, the figure for `Cc1onc(-c2c(F)cccc2Cl)c1C(=O)Nc1nnc(-c2ccccc2)s1` is 2.06 µM [rising, full curve, poor fit]; for `Cc1cc(SCC(=O)NC(=O)NCc2ccco2)nc2ccccc12` it is 15.8 µM [falling, single point].
On to `COc1ccc(C)cc1Nc1nc(-c2c[nH]c3ccccc23)cs1`, for which the AC50 under setting [1] was 8.2 µM [falling, partial curve].
Still for that read-out and setting: the figure for `CCN(CC)CCCNC(=O)c1cc(-c2cccc(Cl)c2)on1` is 3.16 µM [falling, full curve, poor fit].
As for `CN1CCN(c2sc(S(C)(=O)=O)nc2S(=O)(=O)c2ccc(Cl)cc2)CC1`, under setting [1], the AC50 is 35.5 µM [falling, single point].
On the same count and under the same terms, the figure for `Cn1c(=O)c2cn(-c3ccc4c(c3)OCCO4)cc2n(C)c1=O` is 29.1 µM [falling, single point].
On the same count and under the same terms, the figure for `Cc1ccc(SCc2cc(=O)c3c(=O)n(-c4ccccc4)[nH]c3[nH]2)cc1` is 0.891 µM [falling, partial curve, poor fit].
As to `O=C(NCCc1ccccc1)c1oc2ccccc2c1COc1ccccc1`, under setting [1], the AC50 is 20.6 µM [falling, partial curve, poor fit].
Regarding `C=CCN1CC(=O)N2C(C)c3[nH]c4ccccc4c3C[C@H]2C1=O` (some centres not stated), the AC50 under setting [1] is 3.16 µM [rising, single point].
Still for that read-out and setting: the figure for `Cn1nccc1NC(=O)Nc1cccc(Cl)c1Cl` is 3.98 µM [falling, full curve, poor fit]; for `CCOC(=O)C1=c2/c(=C/c3ccccc3OC)c(N)c(C#N)n2C(=O)C(c2ccccc2OC)S1` (configuration not stated) it is 3.66 µM [falling, full curve, poor fit].
Consider `CC(C)(C)c1ccc(C(=O)C=[N+]=[N-])cc1`, for which the AC50 under setting [1] is 23.1 µM [rising, partial curve, poor fit].
Regarding `COc1cc2c(cc1C1NC(=S)NC(C)=C1C(N)=O)CCCC2` (configuration not stated), the AC50 is 11.2 µM [rising, partial curve] under setting [1] and 7.08 µM [falling, partial curve] under setting [2].
As for `CCSc1nnc(NC(=O)NC(C)(C(F)(F)F)C(F)(F)F)s1`, the AC50 under setting [1] was 20.6 µM [rising, partial curve].
`Cc1cc(C(=O)COc2ccccc2C(N)=O)c(C)n1C1CC1`: under setting [1], the AC50 was 35.5 µM [rising, single point].
The same measure, in the same setting: the figure for `CC(=O)Nc1ccc(NC(=O)c2cc(-c3cc(C)c(C)cc3O)n[nH]2)cc1` is 0.501 µM [falling, full curve, poor fit]; for `CC1=C(C)C(=O)OC(C(C)C2CCC3C4CC=C5CC(OC6OC(COC7OC(CO)C(O)C(O)C7O)C(O)C(O)C6O)CC(O)C5(C)C4CCC23C)C1` (configuration not stated) it is 15.8 µM [falling, partial curve, poor fit].
Same read-out and setting: the figure for `Cn1c(=O)c(C(=O)NCCO)c(O)c2ccccc21` is 11.6 µM [falling, partial curve, poor fit]; for `COc1cccc(C(=O)Nc2c(F)c(F)c(F)c(F)c2F)c1` it is 5.8 µM [falling, full curve]; for `O=C(Nc1nccs1)c1cc2sccc2n1Cc1ccc(F)cc1` it is 31.6 µM [rising, single point].
For `CCCOc1ccc2ccccc2c1/C=N/n1c(C)nnc1-n1nc(C)cc1C`, under setting [2], the AC50 is 20.6 µM [falling, partial curve, poor fit].
In the case of `COc1cc2[nH]c(C(=O)Nc3ccc4c(c3)OCCO4)cc2c(OC)c1OC`, under setting [1], the AC50 is 10 µM [falling, single point].
In the case of `CCOc1cccc2sc(NC(=O)CC)nc12`, under setting [1], the AC50 is 5.8 µM [falling, full curve].
Consider `O=C(/C=C/c1ccc2c(c1)OCO2)c1ccccn1`, for which, under setting [1], the AC50 was 3.16 µM [rising, full curve].
With `CSc1nnc2c(n1)OC(c1cn(C)c3ccccc13)N(C(C)=O)c1ccccc1-2` (configuration not stated), the AC50 under setting [1] is 1.3 µM [falling, full curve, poor fit].
For `Cc1ccc2c(c1)C1CN(C)CCC1N2C(=O)COc1ccc(N(C)S(=O)(=O)c2cccs2)cc1` (configuration not stated), under setting [1], the AC50 is 35.5 µM [falling, single point].
For `COc1cc(OC)cc(C(=O)Nc2ccc(S(=O)(=O)Nc3nc(C)cc(C)n3)cc2)c1`, the AC50 under setting [2] is 15.8 µM [falling, single point].
In the case of `CC(=O)Cc1nsc(NC(=O)c2cccc(F)c2)n1`, the AC50 under setting [1] was 3.16 µM [falling, single point].
In the case of `Cn1c(=O)n(/N=C/c2ccccc2)c2ccccc21`, the AC50 under setting [1] was 6.51 µM [rising, full curve, poor fit].
The same measure, in the same setting: the figure for `O=C(NCC(=O)N(Cc1ccco1)C(C(=O)NC1CCCC1)c1ccncc1)c1cccs1` (configuration not stated) is 0.00461 µM [rising, full curve, poor fit]; for `Cc1ccc(NC(=S)N(CCN2CCOCC2)Cc2ccccc2F)cc1` it is 3.55 µM [rising, full curve, poor fit].
As for `CC#CCCCC(=O)Nc1cc(OC)nc(OC)n1`, under setting [1], the AC50 is 39.8 µM [falling, partial curve, poor fit].
On to `CCOC(=O)c1c(NC(=O)COC(=O)Cn2cnc3ccccc32)sc2c1CCC(C)C2` (configuration not stated), for which, under setting [1], the AC50 was 3.26 µM [rising, full curve, poor fit].
